In paper PMC9533685, “NICD3 regulates the expression of MUC5AC and MUC2 by recruiting SMARCA4 and is involved in the differentiation of mucinous colorectal adenocarcinoma” (Molecular Oncology, 2022):
Results are given in words; binding and its absence hold for the method and conditions named. Binding seen in cells or lysates may run through a third protein. Some binding calls cover weakened binding; strength is not graded here.

Chains of the proteins cited; added tags and fusions are not shown. Residues count along the entry.
UniProt P51532: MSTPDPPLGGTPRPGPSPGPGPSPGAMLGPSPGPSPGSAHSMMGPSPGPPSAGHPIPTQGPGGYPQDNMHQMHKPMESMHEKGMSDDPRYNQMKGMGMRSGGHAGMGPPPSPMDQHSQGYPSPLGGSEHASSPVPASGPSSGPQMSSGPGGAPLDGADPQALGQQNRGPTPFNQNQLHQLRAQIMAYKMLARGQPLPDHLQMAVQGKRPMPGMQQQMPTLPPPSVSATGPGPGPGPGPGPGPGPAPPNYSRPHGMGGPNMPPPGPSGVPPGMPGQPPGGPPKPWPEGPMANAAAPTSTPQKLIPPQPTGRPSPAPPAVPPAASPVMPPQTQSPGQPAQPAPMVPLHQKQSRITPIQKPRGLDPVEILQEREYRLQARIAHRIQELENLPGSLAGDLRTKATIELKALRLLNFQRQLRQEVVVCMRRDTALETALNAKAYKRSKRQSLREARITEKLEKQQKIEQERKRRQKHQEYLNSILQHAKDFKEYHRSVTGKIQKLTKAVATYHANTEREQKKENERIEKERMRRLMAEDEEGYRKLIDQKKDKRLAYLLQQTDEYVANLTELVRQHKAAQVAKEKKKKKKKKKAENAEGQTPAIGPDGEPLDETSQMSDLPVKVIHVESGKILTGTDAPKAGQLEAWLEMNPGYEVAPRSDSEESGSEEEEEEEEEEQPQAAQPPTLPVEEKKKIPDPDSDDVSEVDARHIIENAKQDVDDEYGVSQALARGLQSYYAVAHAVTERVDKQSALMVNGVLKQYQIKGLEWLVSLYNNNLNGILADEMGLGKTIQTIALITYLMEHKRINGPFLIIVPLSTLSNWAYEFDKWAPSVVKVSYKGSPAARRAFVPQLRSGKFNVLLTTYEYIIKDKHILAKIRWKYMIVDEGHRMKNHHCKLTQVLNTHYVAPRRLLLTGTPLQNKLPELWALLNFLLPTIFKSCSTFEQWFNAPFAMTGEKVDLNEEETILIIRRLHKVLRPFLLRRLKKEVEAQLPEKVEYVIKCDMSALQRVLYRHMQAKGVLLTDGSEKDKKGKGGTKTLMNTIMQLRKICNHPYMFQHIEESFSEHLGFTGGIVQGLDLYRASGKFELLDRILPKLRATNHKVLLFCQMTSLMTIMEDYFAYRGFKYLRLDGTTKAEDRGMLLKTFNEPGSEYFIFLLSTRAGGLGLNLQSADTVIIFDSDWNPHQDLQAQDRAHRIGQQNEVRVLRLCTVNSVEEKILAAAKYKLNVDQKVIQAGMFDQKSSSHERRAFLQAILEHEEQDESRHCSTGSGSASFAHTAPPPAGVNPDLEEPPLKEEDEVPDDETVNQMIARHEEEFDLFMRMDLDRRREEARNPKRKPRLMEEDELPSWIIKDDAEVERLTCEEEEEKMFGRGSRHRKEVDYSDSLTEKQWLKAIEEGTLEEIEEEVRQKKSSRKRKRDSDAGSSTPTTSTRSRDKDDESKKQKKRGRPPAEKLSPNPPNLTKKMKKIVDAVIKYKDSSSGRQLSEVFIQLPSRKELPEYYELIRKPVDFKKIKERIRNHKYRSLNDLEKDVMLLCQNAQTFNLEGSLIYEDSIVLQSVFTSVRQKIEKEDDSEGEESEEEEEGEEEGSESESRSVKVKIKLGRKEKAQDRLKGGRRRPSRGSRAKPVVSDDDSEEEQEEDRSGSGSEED
UniProt Q9UM47, residues 40-2321: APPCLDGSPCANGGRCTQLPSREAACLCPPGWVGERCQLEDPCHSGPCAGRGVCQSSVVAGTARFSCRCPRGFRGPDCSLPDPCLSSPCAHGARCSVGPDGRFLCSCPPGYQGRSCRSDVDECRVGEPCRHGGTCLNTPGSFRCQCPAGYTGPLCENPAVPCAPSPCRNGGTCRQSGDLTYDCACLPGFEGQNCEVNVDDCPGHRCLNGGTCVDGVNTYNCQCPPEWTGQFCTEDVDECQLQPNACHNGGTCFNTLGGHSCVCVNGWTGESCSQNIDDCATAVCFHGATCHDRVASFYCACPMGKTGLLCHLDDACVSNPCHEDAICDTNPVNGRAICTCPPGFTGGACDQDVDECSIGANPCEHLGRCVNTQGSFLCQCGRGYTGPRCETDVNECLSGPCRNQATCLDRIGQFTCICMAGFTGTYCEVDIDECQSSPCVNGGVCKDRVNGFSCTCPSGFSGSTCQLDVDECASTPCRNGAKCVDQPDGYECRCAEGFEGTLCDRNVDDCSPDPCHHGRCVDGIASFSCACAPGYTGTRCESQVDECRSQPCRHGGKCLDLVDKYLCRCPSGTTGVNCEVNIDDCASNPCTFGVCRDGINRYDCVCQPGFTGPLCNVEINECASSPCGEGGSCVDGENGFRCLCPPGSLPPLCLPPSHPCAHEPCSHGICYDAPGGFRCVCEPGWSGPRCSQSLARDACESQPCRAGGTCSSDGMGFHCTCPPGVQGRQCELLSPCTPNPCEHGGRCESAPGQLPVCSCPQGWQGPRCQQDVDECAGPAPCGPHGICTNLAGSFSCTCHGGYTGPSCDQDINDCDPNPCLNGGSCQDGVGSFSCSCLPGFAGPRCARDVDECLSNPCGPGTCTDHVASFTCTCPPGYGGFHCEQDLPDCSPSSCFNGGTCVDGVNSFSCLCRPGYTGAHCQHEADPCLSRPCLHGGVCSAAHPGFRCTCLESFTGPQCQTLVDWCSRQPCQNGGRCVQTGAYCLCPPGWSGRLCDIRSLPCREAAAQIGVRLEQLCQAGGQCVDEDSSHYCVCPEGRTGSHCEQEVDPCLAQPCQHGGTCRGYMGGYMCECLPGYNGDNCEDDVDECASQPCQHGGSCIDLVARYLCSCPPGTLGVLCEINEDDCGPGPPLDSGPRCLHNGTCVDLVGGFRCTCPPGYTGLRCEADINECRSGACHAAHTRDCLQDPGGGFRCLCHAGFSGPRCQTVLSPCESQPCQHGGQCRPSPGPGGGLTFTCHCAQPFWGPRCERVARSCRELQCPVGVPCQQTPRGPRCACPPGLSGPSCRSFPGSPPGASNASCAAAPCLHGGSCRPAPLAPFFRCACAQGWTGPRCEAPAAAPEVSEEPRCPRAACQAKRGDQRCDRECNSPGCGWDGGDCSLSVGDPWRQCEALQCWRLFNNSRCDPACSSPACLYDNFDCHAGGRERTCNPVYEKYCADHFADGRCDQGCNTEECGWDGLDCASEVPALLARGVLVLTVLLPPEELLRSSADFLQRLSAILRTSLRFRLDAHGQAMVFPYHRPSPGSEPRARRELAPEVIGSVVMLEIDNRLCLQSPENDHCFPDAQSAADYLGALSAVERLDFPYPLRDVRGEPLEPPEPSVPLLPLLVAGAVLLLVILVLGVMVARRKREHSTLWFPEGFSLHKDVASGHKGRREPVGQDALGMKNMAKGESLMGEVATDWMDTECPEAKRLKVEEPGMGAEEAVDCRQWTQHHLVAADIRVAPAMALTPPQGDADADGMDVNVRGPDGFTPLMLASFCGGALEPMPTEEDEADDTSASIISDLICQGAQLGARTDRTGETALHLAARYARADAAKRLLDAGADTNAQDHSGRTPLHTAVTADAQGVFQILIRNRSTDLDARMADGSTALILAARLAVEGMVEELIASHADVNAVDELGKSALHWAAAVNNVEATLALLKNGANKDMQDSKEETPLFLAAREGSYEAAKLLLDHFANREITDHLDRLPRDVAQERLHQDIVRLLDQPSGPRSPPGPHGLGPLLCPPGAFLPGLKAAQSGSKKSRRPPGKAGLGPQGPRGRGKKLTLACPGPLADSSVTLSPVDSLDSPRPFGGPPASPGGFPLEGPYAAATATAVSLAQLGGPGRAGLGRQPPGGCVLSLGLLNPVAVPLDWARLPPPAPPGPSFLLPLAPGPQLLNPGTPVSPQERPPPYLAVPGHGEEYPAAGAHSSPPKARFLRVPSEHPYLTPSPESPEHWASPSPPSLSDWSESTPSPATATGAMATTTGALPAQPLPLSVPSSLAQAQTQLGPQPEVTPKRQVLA

Target: Transcription activator BRG1 (SMARCA4), endogenous in colorectal cancer cells (human (endogenous in HCT116, HT29, SW480, SW620)) (UniProt P51532)
Assay: co-IP; endogenous proteins in RIPA lysates of HCT116, HT29, SW480 and SW620 cells; IP with anti-NOTCH3 or anti-SMARCA4, protein A/G beads, 4 °C; IgG as negative control; Western blot

binding: binds
Substance: Neurogenic locus notch homolog protein 3 (NOTCH3), endogenous in colorectal cancer cells (from UniProt Q9UM47 40-2321) (receptor)
